Consider 2 molecules from article PMC9249863.

Amino acid sequences for entries named in this document (tags omitted).
UniProt Q92993: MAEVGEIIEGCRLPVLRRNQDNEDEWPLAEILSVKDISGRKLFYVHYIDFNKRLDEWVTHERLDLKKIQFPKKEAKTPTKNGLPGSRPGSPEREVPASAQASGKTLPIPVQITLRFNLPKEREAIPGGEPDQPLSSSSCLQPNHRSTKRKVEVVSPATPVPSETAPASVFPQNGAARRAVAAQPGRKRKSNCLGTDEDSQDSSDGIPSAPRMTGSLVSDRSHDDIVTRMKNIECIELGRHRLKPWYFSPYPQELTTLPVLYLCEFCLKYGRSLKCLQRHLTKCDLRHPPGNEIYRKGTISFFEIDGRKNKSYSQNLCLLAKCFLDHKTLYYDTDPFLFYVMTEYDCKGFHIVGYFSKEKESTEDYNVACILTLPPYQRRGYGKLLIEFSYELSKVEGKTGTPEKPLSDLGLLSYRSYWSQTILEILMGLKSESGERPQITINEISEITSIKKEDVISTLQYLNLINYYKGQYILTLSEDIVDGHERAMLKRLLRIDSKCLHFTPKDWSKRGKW

The target in test [1] is RFP-TIP60 (WT) (human) (UniProt Q92993). Nature of the test: co-IP; TIP60 antibody and protein-A Sepharose beads, overnight at 4 °C; lysates of transfected Cos-1 cells under control or wound-generated conditions; lysis buffer 20 mM Tris pH 8.0, 2 mM EDTA, 150 mM NaCl, 0.5% Triton X 100, 0.1% SDS; Western blot with TIP60, PXR and core histone antibodies. In general terms: In western blotting, separated proteins are transferred to a membrane and probed.

In test [2] the target is endogenous TIP60 (human (endogenous in HepG2)) (UniProt Q92993). Briefly: co-IP; endogenous TIP60 precipitated with TIP60 antibody and protein-A Sepharose beads from HepG2 cells, normal and 24 h after wound generation; lysis buffer 20 mM Tris pH 8.0, 2 mM EDTA, 150 mM NaCl, 0.5% Triton X 100, 0.1% SDS; Western blot of the endogenous proteins pulled down.

Results are given in words; binding and its absence hold for the method and conditions named. In cells and extracts the contact can be indirect. Some binding calls cover weakened binding; strength is not graded here. For some assays here: Tags and fused reporters may be left off the sequences shown.

B1: GFP-PXR (WT) (receptor, UniProt O75469 1-434)
chain: MEVRPKESWNHADFVHCEDTESVPGKPSVNADEEVGGPQICRVCGDKATGYHFNVMTCEGCKGFFRRAMKRNARLRCPFRKGACEITRKTRRQCQACRLRKCLESGMKKEMIMSDEAVEERRALIKRKKSERTGTQPLGVQGLTEEQRMMIRELMDAQMKTFDTTFSHFKNFRLPGVLSSGCELPESLQAPSREEAAKWSQVRKDLCSLKVSLQLRGEDGSVWNYKPPADSGGKEIFSLLPHMADMSTYMFKGIISFAKVISYFRDLPIEDQISLLKGAAFELCQLRFNTVFNAETGTWECGRLSYCLEDTAGGFQQLLLEPMLKFHYMLKKLQLHEEEYVLMQAISLFSPDRPGVLQHRVVDQLQEQFAITLKSYIECNRPQPAHRFLFLKIMAMLTELRSINAQHTQRLLRIQDIHPFATPLMQELFGITGS
Consider B1, for which the binding entry in test [1] is “binds”.

B2: endogenous PXR (receptor, UniProt O75469 1-434)
chain: B1 chain
For B2, the binding result in test [2] was “binds”.
